Data as given in PubChem BioAssay AID1224826 (NIAID, 2016)
Screen: 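Genes that change LPS-induced Tnf promoter activity in mouse macrophages when knocked down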 (primary screen). Cell system: RAW264.7 G9 macrophages from mouse bearing reporters for p65 (GFP) and the Tnf promoter (mCherry). Reagent: siRNA pool against mouse genes, 100 nM. Time to read-out: 16 h of LPS stimulation, after 2 days of siRNA transfection. Conditions: bacterial lipopolysaccharide (Salmonella minnesota R595), 10 ng/ml. Measured: 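Imaged Tnf reporter mCherry in nuclei, minus background, normalised per plate to the median and expressed as robust z-scores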. Reading the numbers: Tnf reporter robust z-score: higher = stronger Tnf promoter reporter signal after LPS. Rule for the call: 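Called active when robust z-score is at most -1.3, matching the median of the Tlr4 knock-down control, or over 3; control wells and wells with under 50 cells never active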. Meaning of the calls: active = Tnf reporter clearly lowered or raised; inactive = no clear change in Tnf reporter.
This is an unselected part of about 17,000 deposited reagents. Of all reagents, about 1,110 (6.6%) got an active call. 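Active means lowered or raised reporter signal; replicate intensities are raw and not normalised per plate.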 Further read-outs or replicates are left out here. Reagent sequences are not shown.

After knock-down of D630039A03Rik (RIKEN cDNA D630039A03 gene), the screen gave Tnf reporter robust z-score -1.44; fewer than 50 cells in well enough cells in well; active.
Knock-down of Cyp4a10 (cytochrome P450, family 4, subfamily a, polypeptide 10) gave: Tnf reporter robust z-score -0.05; fewer than 50 cells in well enough cells in well; inactive.
Silencing of Rwdd2b (RWD domain containing 2B) resulted in: Tnf reporter robust z-score 0.45; fewer than 50 cells in well enough cells in well; inactive.
For Ngb (neuroglobin), the values are Tnf reporter robust z-score -1.1; fewer than 50 cells in well enough cells in well; inactive.
Against Rhd (Rh blood group, D antigen), the entry reads Tnf reporter robust z-score 0.47; fewer than 50 cells in well enough cells in well; inactive.
Slc33a1 gave fewer than 50 cells in well fewer than 50 cells per well; well left out of calls; inactive.
Depletion of Crybb2 (crystallin, beta B2) resulted in: Tnf reporter robust z-score -0.87; fewer than 50 cells in well enough cells in well; inactive.
Against Tef (thyrotroph embryonic factor), the entry reads Tnf reporter robust z-score 0.85; fewer than 50 cells in well enough cells in well; inactive.
Asb10 (ankyrin repeat and SOCS box-containing 10) scored Tnf reporter robust z-score -0.15; fewer than 50 cells in well enough cells in well; inactive.
Ripor2 (RHO family interacting cell polarization regulator 2) gave Tnf reporter robust z-score -0.69; fewer than 50 cells in well enough cells in well; inactive.
Silencing of Rasip1 (Ras interacting protein 1) gave: Tnf reporter robust z-score 0.18; fewer than 50 cells in well enough cells in well; inactive.
For 2210408I21Rik (RIKEN cDNA 2210408I21 gene) the deposit lists Tnf reporter robust z-score 1.81; fewer than 50 cells in well enough cells in well; inactive.
Bud23 (BUD23, rRNA methyltransferase and ribosome maturation factor) scored Tnf reporter robust z-score 2.02; fewer than 50 cells in well enough cells in well; inactive.
After knock-down of Or11g7 (olfactory receptor family 11 subfamily G member 7) the results were Tnf reporter robust z-score -0.27; fewer than 50 cells in well enough cells in well; inactive.
